PubChem BioAssay AID1671195 | Yale University, 2021
This is a random part of about 22,000 reagents. About 1,510 of them (6.9%) were called active. 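Active includes knockdowns raising or lowering LDL uptake; positive z-scores mean more uptake, negative mean less.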

- Test: 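Genes whose knockdown alters LDL uptake in liver cancer cells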 (primary screen)
- Cell system: human Huh7 hepatoma cells
- Reagents: siRNA pool against human genes, 18 nM
- Time to read-out: about 2 to 2.5 days of knockdown, then 8 h LDL uptake
- Treatment: DiI-labelled LDL at 30 µg/ml for 8 h, in lipoprotein-deficient serum medium
- Detection: 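Per-cell DiI-LDL intensity by automated imaging; well means scaled to the plate median and given as a robust z-score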
- Reading the numbers: robust z-score: higher = more LDL uptake after knockdown
- Active means: 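a gene counts as active if at least two replicate z-scores exceed ±2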

{"target": "LOC442483 (retired record)", "robust z-score, replicate 1": -1.43, "robust z-score, replicate 2": -0.129, "robust z-score, replicate 3": -1.14, "Call": "inactive"}
{"target": "OPN3 (opsin 3)", "robust z-score, replicate 1": -0.039, "robust z-score, replicate 2": -0.109, "robust z-score, replicate 3": -0.249, "Call": "inactive"}
{"target": "SPMIP3 (sperm microtubule inner protein 3)", "robust z-score, replicate 1": -1.72, "robust z-score, replicate 2": -1.28, "robust z-score, replicate 3": -1.29, "Call": "inactive"}
{"target": "ADGRL1 (adhesion G protein-coupled receptor L1)", "robust z-score, replicate 1": -0.642, "robust z-score, replicate 2": -0.45, "robust z-score, replicate 3": -1.16, "Call": "inactive"}
{"target": "LOC387992 (retired record)", "robust z-score, replicate 1": -1.04, "robust z-score, replicate 2": -0.709, "robust z-score, replicate 3": -0.722, "Call": "inactive"}
{"target": "MLC1 (modulator of VRAC current 1)", "robust z-score, replicate 1": -0.301, "robust z-score, replicate 2": 0.739, "robust z-score, replicate 3": 0.842, "Call": "inactive"}
{"target": "CCS (copper chaperone for superoxide dismutase)", "robust z-score, replicate 1": 2.48, "robust z-score, replicate 2": 0.965, "robust z-score, replicate 3": 1.58, "Call": "inactive"}

2 entries from above, reformatted.
MLC1 (modulator of VRAC current 1)
- robust z-score, replicate 1: -0.301
- robust z-score, replicate 2: 0.739
- robust z-score, replicate 3: 0.842
- Call: inactive

CCS (copper chaperone for superoxide dismutase)
- robust z-score, replicate 1: 2.48
- robust z-score, replicate 2: 0.965
- robust z-score, replicate 3: 1.58
- Call: inactive

Continued.
{"target": "USP32P2 (ubiquitin specific peptidase 32 pseudogene 2)", "robust z-score, replicate 1": 0.748, "robust z-score, replicate 2": 1.11, "robust z-score, replicate 3": 0.943, "Call": "inactive"}
{"target": "SKIL (SKI like proto-oncogene)", "robust z-score, replicate 1": -0.0322, "robust z-score, replicate 2": -0.0254, "robust z-score, replicate 3": 0.0358, "Call": "inactive"}
{"target": "LINC00518 (long independently transcribed non-coding RNA 518)", "robust z-score, replicate 1": -0.415, "robust z-score, replicate 2": -0.123, "robust z-score, replicate 3": -0.118, "Call": "inactive"}
{"target": "LINC00951 (long independently transcribed non-coding RNA 951)", "robust z-score, replicate 1": -0.0652, "robust z-score, replicate 2": -1.68, "robust z-score, replicate 3": -1.32, "Call": "inactive"}
{"target": "PRMT2IP (PRMT2 interacting protein)", "robust z-score, replicate 1": 0.162, "robust z-score, replicate 2": 0.112, "robust z-score, replicate 3": 1.47, "Call": "inactive"}
{"target": "PAN2 (poly(A) specific ribonuclease subunit PAN2)", "robust z-score, replicate 1": 0.0757, "robust z-score, replicate 2": 0.156, "robust z-score, replicate 3": 0.264, "Call": "inactive"}
{"target": "LINC02111 (long independently transcribed non-coding RNA 2111)", "robust z-score, replicate 1": -0.251, "robust z-score, replicate 2": -0.488, "robust z-score, replicate 3": -0.377, "Call": "inactive"}
{"target": "CAPNS1 (calpain small subunit 1)", "robust z-score, replicate 1": -1.7, "robust z-score, replicate 2": -0.662, "robust z-score, replicate 3": -0.966, "Call": "inactive"}
{"target": "CYB5R1 (cytochrome b5 reductase 1)", "robust z-score, replicate 1": -0.176, "robust z-score, replicate 2": 0.267, "robust z-score, replicate 3": 0.00288, "Call": "inactive"}
